Reference: paper doi:10.1101/2024.03.13.584761
No constants are given. Whether binding was seen depends on the method and setting. Binding seen in cells or lysates may run through a third protein. Some entries that bind do so weakly or less than the wild type.

By UniProt entry, the sequences of proteins in these tests, tags left out.
UniProt O15131: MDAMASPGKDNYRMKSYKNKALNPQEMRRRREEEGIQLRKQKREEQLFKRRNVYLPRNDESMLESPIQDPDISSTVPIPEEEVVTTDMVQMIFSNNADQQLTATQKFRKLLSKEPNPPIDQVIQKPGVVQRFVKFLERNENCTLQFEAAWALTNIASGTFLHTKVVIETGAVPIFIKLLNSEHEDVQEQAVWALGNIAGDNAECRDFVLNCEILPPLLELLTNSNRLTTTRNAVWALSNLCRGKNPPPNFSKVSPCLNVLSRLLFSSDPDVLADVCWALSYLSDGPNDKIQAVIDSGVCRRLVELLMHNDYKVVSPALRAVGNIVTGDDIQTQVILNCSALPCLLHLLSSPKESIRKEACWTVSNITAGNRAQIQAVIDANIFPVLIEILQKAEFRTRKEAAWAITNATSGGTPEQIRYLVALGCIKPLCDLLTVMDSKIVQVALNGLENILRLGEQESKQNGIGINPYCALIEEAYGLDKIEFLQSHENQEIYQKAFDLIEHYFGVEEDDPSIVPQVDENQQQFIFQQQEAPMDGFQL
UniProt Q05322: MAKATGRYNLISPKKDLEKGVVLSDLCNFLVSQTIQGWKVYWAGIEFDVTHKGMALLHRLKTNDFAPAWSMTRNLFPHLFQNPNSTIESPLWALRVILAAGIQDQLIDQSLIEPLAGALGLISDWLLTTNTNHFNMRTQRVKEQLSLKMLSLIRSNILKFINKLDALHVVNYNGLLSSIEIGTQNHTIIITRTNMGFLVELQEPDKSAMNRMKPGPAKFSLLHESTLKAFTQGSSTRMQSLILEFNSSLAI

Target: HA-tagged IMPA6 (importin-alpha 6) (UniProt O15131)
Assay: co-IP

Substance: Ebola virus (EBOV) VP24 wildtype (from UniProt Q05322 1-251)
- binding: binds
